The source of these data is the supplement of paper PMC2577665.

± gives the standard deviation of the averaged measurements. Single values of this set are uncertain.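 In each well, ERalpha-negative HeLa cells were transfected with ERalpha, a reporter bearing two estrogen response elements, and one overexpressed, poorly characterized human cDNA. Genes reducing signal to the BRCA1 positive control level (roughly 0.6 of empty vector) or below were scored as repressor hits.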

This data set deals with ERE-luciferase reporter with exogenous ERalpha in HeLa cells. As to the kind of experiment: relative ERE luciferase activity (Firefly/Renilla) upon cDNA overexpression, relative to empty vector (fold of empty vector); higher = stronger ERalpha transactivation (less repression). The settings on record: 17beta-estradiol: 10 nM; 12 h.
Take “MLSSFNEWFWQDRFWLPPNVTWTELEDRDGRVYPHPQDLLAALPLALVLLAMRLAFERFIGLPLSRWLGVRDQTRRQVKPNATLEKHFLTEGHRPKEPQLSLLAAQCGLTLQQTQRWFRRRRNQDRPQLTKKFCEASWRFLFYLSSFVGGLSVLYHESWLWAPVMCWDRYPNQTLKPSLYWWYLLELGFYLSLLIRLPFDVKRKDFKEQVIHHFVAVILMTFSYSANLLRIGSLVLLLHDSSDYLLEACKMVNYMQYQQVCDALFLIFSFVFFYTRLVLFPTQILYTTYYESISNRGPFFGYYFFNGLLMLLQLLHVFWSCLILRMLYSFMKKGQMEKDIRSDVEESDSSEEAAAAQEPLQLKNGAAGGPRPAPTDGPRSRVAGRLTNRHTTAT [LASS4]”: the “relative ERE luciferase activity” value was determined as 1.13.

As to “MMATPNQTACNAESPVALEEAKTSGAPGSPQTPPERHDSGGSLPLTPRMESHSEDEDLAGAVGGLGWNSRSPRTQSPGGCSAEAVLARKKHRRRPSKRKRHWRPYLELSWAEKQQRDERQSQRASRVREEMFAKGQPVAPYNTTQFLMNDRDPEEPNLDVPHGISHPGSSGESEAGDSDGRGRAHGEFQRKDFSETYERFHTESLQGRSKQELVRDYLELEKRLSQAEEETRRLQQLQACTGQQSCRQVEELAAEVQRLRTENQRLRQENQMWNREGCRCDEEPGT [HEXIM2]”, the “relative ERE luciferase activity” value was 1 ± 0.09.

“MMCTAKKCGIRFQPPAIILIYESEIKGKIRQRIMPVRNFSKFSDCTRAAEQLKNNPRHKSYLEQVSLRQLEKLFSFLRGYLSGQSLAETMEQIQRETTIDPEEDLNKLDDKELAKRKSIMDELFEKNQKKKDDPNFVYDIEVEFPQDDQLQSCGWDTESADEF [C3orf34]”: the “relative ERE luciferase activity” value was found to be 1.05.

Consider “MMRREDEEEEGTMMKAKGDLEMKEEEEISETGELVGPFVSAMPTPMPHNKGTRFSEAWEYFHLAPARAGHHPNQYATCRLCGRQVSRGPGVNVGTTALWKHLKSMHREELEKSGHGQAGQRQDPRPHGPQLPTGIEGNWGRLLEQVGTMALWASQREKEVLRRERAVEWRERAVEKRERALEEVERAILEMKWKVRAEKEACQREKELPAAVHPFHFV [ZBED2]”, for which the “relative ERE luciferase activity” value came to 1.22.

For the sequence “MMRTQCLLGLRTFVAFAAKLWSFFIYLLRRQIRTVIQYQTVRYDILPLSPVSRNRLAQVKRKILVLDLDETLIHSHHDGVLRPTVRPGTPPDFILKVVIDKHPVRFFVHKRPHVDFFLEVVSQWYELVVFTASMEIYGSAVADKLDNSRSILKRRYYRQHCTLELGSYIKDLSVVHSDLSSIVILDNSPGAYRSHPDNAIPIKSWFSDPSDTALLNLLPMLDALRFTADVRSVLSRNLHQHRLW [DULLARD]”, the “relative ERE luciferase activity” value is 1.23.

In the case of “MNAIVALCHFCELHGPRTLFCTEVLHAPLPQGDGNEDSPGQGEQAEEEEGGIQMNSRMRAHSPAEGASVESSSPGPKKSDMCEGCRSLAAGHPGYISHDKETSIKYVSHQHPSHPQLFSIVRQACVRSLSCEVCPGREGPIFFGDEQHGFVFSHTFFIKDSLARGFQRWYSIITIMMDRIYLINSWPFLLGKVRGIIDELQGKALKVFEAEQFGCPQRAQRMNTAFTPFLHQRNGNAARSLTSLTSDDNLWACLHTSFAWLLKACGSRLTEKLLEGAPTEDTLVQMEKLADLEEESESWDNSEAEEEEKAPVLPESTEGRELTQGPAESSSLSGCGSWQPRKLPVFKSLRHMRQVLGAPSFRMLAWHVLMGNQVIWKSRDVDLVQSAFEVLRTMLPVGCVRIIPYSSQYEEAYRCNFLGLSPHVQIPPHVLSSEFAVIVEVHAAARSTLHPVGCEDDQSLSKYEFVVTSGSPVAADRVGPTILNKIEAALTNQNLSVDVVDQCLVCLKEEWMNKVKVLFKFTKVDSRPKEDTQKLLSILGASEEDNVKLLKFWMTGLSKTYKSHLMSTVRSPTASESRN [FLCN]”, the “relative ERE luciferase activity” value was determined as 1.16 ± 0.2.

For “MNALLEQKEQQERLREAAALGDIREVQKLVESGVDVNSQNEVNGWTCLHWACKRNHGQVVSYLLKSGADKEILTTKGEMPVQLTSRREIRKIMGVEEEDDDDDDDDNLPQLKKESELPFVPNYLANPAFPFIYTPTAEDSAQMQNGGPSTPPASPPADGSPPLLPPGEPPLLGTFPRDHTSLALVQNGDVSAPSAILRTPESTKPGPVCQPPVSQSRSLFSSVPSKPPMSLEPQNGTYAGPAPAFQPFFFTGAFPFNMQELVLKVRIQNPSLRENDFIEIELDRQELTYQELLRVCCCELGVNPDQVEKIRKLPNTLLRKDKDVARLQDFQELELVLMISENNFLFRNAASTLTERPCYNRRASKLTY [ANKRD40]”, the “relative ERE luciferase activity” value was determined as 1.04.

As to “MNEKSCSFHSKEELRDGQGERLSAGYSPSYDKDKSVLAFRGIPISELKNHGILQALTTEAYEWEPRVVSTEVVRAQEEWEAVDTIQPETGSQASSEQPGQLISFSEALQHFQTVDLSPFKKRIQPTIRRTGLAALRHYLFGPPKLHQRLREERDLVLTIAQCGLDSQDPVHGRVLQTIYKKLTGSKFDCALHGNHWEDLGFQGANPATDLRGAGFLALLHLLYLVMDSKTLPMAQEIFRLSRHHIQQFPFCLMSVNITHIAIQALREECLSRECNRQQKVIPVVNSFYAATFLHLAHVWRTQRKTISDSGFVLKELEVLAKKSPRRLLKTLELYLARVSKGQASLLGAQKCYGPEAPPFKDLTFTGESDLQSHSSEGVWLI [RBED1]”, the “relative ERE luciferase activity” value came to 1.07 ± 0.044.

With “MNKRDYMNTSVQEPPLDYSFRSIHVIQDLVNEEPRTGLRPLKRSKSGKSLTQSLWLNNNVLNDLRDFNQVASQLLEHPENLAWIDLSFNDLTSIDPVLTTFFNLSVLYLHGNSIQRLGEVNKLAVLPRLRSLTLHGNPMEEEKGYRQYVLCTLSRITTFDFSGVTKADRTTAEVWKRMNIKPKKAWTKQNTL [LRRC51]”, the “relative ERE luciferase activity” value amounted to 1.11.

Turning to “MNRKKLQKLTDTLTKNCKHFNKFEVNCLIKLFYDLVGGVERQGLVVGLDRNAFRNILHVTFGMTDDMIMDRVFRGFDKDNDGCVNVLEWIHGLSLFLRGSLEEKMKYCFEVFDLNGDGFISKEEMFHMLKNSLLKQPSEEDPDEGIKDLVEITLKKMDHDHDGKLSFADYELAVREETLLLEAFGPCLPDPKSQMEFEAQVFKDPNEFNDM [EFCAB1]”, the “relative ERE luciferase activity” value is 0.364.

For the sequence “MNSLSEANTKFMFDLFQQFRKSKENNIFYSPISITSALGMVLLGAKDNTAQQIKKVLHFDQVTENTTGKAATYHVDRSGNVHHQFQKLLTEFNKSTDAYELKIANKLFGEKTYLFLQEYLDAIKKFYQTSVESVDFANAPEESRKKINSWVESQTNEKIKNLIPEGNIGSNTTLVLVNAIYFKGQWEKKFNKEDTKEEKFWPNKNTYKSIQMMRQYTSFHFASLEDVQAKVLEIPYKGKDLSMIVLLPNEIDGLQKLEEKLTAEKLMEWTSLQNMRETRVDLHLPRFKVEESYDLKDTLRTMGMVDIFNGDADLSGMTGSRGLVLSGVLHKAFVEVTEEGAEAAAATAVVGFGSSPTSTNEEFHCNHPFLFFIRQNKTNSILFYGRFSSP [SERPINB3]”, the “relative ERE luciferase activity” value turned out to be 1.12.

Regarding “MNSSTSTMSEEPDALSVVNQLRDLAADPLNRRAIVQDQGCLPGLILFMDHPNPPVVHSALLALRYLAECRANREKMKGELGMMLSLQNVIQKTTTPGETKLLASEIYDILQSSNMADGDSFNEMNSRRRKAQFFLGTTNKRAKTVVLHIDGLDDTSRRNLCEEALLKIKGVISFTFQMAVQRCVVRIRSDLKAEALASAIASTKVMKAQQVVKSESGEEMLVPFQDTPVEVEQNTELPDYLPEDESPTKEQDKAVSRVGSHPEGGASWLSTAANFLSRSFYW [ARMC1]”, the “relative ERE luciferase activity” value came to 1.12.

As to “MPARCVAAHCGNTTKSGKSLFRFPKDRAVRLLWDRFVRGCRADWYGGNDRSVICSDHFAPACFDVSSVIQKNLRFSQRLRLVAGAVPTLHRVPAPAPKRGEEGDQAGRLDTRGELQAARHSEAAPGPVSCTRPRAGKQAAASQITCENELVQTQPHADNPSNTVTSVPTHCEEGPVHKSTQISLKRPRHRSVGIQAKVKAFGKRLCNATTQTEELWSRTSSLFDIYSSDSETDTDWDIKSEQSDLSYMAVQVKEETC [THAP10]”, the “relative ERE luciferase activity” value was 1.23.

For “MPEWPPCLSVAPALVITMAAGKGAPLSPSAENRWRLSEPELGRGCKPVLLEKTNRLGPEAAVGRAGRDVGSAELALLVAPGKPRPGKPLPPKTRGEQRQSAFTELPRMKDRQVDAQAQEREHDDPTGQPGAPQLTQNIPRGPAGSKVFSVWPSGARSEQRSAFSKPTKRPAERPELTSVFPAGESADALGELSGLLNTTDLACWGRLSTPKLLVGDLWNLQALPQNAPLCSTFLGAPTLWLEHTQAQVPPPSSSSTTSWALLPPTLTSLGLSTQNWCAKCNLSFRLTSDLVFHMRSHHKKEHAGPDPHSQKRREEALACPVCQEHFRERHHLSRHMTSHS [ZNF488]”, the “relative ERE luciferase activity” value was 1.27.

Regarding “MPGISARGLSHEGRKQLAVNLTRVLALYRSILDAYIIEFFTDNLWDTLPCSWQEALDGLKPPQLATMLLGMPGEGEVVRYRSVWPLTLLALKSTACALAFTRMPGFQTPSEFLENPSQSSRLTAPFRKHVRPKKQHEIRRLGELVKKLSDFTGCTQVVDVGSGQGHLSRFMALGLGLMVKSIEGDQRLVERAQRLDQELLQALEKEEKRNPQVVQTSPRHSPHHVVRWVDPTALCEELLLPLENPCQGRARLLLTGLHACGDLSVALLRHFSCCPEVVALASVGCCYMKLSDPGGYPLSQWVAGLPGYELPYRLREGACHALEEYAERLQKAGPGLRTHCYRAALETVIRRARPELRRPGVQGIPRVHELKIEEYVQRGLQRVGLDPQLPLNLAALQAHVAQENRVVAFFSLALLLAPLVETLILLDRLLYLQEQGFHAELLPIFSPELSPRNLVLVATKMPLGQALSVLETEDS [C1orf66]”, the “relative ERE luciferase activity” value was 1.03.

Consider “MPGPATDAGKIPFCDAKEEIRAGLESSEGGGGPERPGARGQRQNIVWRNVVLMSLLHLGAVYSLVLIPKAKPLTLLWAYFCFLLAALGVTAGAHRLWSHRSYRAKLPLRIFLAVANSMAFQNDIFEWSRDHRAHHKYSETDADPHNARRGFFFSHIGWLFVRKHRDVIEKGRKLDVTDLLADPVVRIQRKYYKISVVLMCFVVPTLVPWYIWGESLWNSYFLASILRYTISLNISWLVNSAAHMYGNRPYDKHISPRQNPLVALGAIGEGFHNYHHTFPFDYSASEFGLNFNPTTWFIDFMCWLGLATDRKRATKPMIEARKARTGDSSA [SCD5]”, for which the “relative ERE luciferase activity” value was found to be 1.13.

Take “MPGPLTCTPAWQGQGRAAAFLCCSFQRAGAVVGVPARWHRGRLSSQQRLRSSLGGSHPCPQLGRRLVREGVISVPRQQGRRRCRESFSPADVAPGPICSANICLSGVRFLTCLNRVREHVVGPSPSPAAPICFFPVVEALCTLRGRRCHCLPFPKRGMQRWMLPLRRGARLLPLASSKNPRARSPGLDPLGSSETLWSHRGGH [C9orf163]”: the “relative ERE luciferase activity” value worked out at 1.13.

Consider “MPGRSSSNSGSTGFISFSGVESALSSLKNFQACINSGMDTASSVALDLVESQTEVSSEYSMDKAMVEFATLDRQLNHYVKAVQSTINHVKEERPEKIPDLKLLVEKKFLALQSKNSDADFQNNEKFVQFKQQLKELKKQCGLQADREADGTEGVDEDIIVTQSQTNFTCPITKEEMKKPVKNKVCGHTYEEDAIVRMIESRQKRKKKAYCPQIGCSHTDIRKSDLIQDEALRRAIENHNKKRHRHSE [NSMCE2]”, for which the “relative ERE luciferase activity” value came to 0.861.

Turning to “MPKYCRAPNCSNTAGRLGADNRPVSFYKFPLKDGPRLQAWLQHMGCEHWVPSCHQHLCSEHFTPSCFQWRWGVRYLRPDAVPSIFSRGPPAKSQRRTRSTQKPVSPPPPLQKNTPLPQSPAIPVSGPVRLVVLGPTSGSPKTVATMLLTPLAPAPTPERSQPEVPAQQAQTGLGPVLGALQRRVRRLQRCQERHQAQLQALERLAQQLHGESLLARARRGLQRLTTAQTLGPEESQTFTIICGGPDIAMVLAQDPAPATVDAKPELLDTRIPSA [THAP8]”, the “relative ERE luciferase activity” value is 1.06.
